Our source for the binding values is patent US20210310005A1.

Sequences of proteins named here, by UniProt entry; tags and fusion partners are left off. Residues count along the entry.
UniProt P35579, residues 2-1960: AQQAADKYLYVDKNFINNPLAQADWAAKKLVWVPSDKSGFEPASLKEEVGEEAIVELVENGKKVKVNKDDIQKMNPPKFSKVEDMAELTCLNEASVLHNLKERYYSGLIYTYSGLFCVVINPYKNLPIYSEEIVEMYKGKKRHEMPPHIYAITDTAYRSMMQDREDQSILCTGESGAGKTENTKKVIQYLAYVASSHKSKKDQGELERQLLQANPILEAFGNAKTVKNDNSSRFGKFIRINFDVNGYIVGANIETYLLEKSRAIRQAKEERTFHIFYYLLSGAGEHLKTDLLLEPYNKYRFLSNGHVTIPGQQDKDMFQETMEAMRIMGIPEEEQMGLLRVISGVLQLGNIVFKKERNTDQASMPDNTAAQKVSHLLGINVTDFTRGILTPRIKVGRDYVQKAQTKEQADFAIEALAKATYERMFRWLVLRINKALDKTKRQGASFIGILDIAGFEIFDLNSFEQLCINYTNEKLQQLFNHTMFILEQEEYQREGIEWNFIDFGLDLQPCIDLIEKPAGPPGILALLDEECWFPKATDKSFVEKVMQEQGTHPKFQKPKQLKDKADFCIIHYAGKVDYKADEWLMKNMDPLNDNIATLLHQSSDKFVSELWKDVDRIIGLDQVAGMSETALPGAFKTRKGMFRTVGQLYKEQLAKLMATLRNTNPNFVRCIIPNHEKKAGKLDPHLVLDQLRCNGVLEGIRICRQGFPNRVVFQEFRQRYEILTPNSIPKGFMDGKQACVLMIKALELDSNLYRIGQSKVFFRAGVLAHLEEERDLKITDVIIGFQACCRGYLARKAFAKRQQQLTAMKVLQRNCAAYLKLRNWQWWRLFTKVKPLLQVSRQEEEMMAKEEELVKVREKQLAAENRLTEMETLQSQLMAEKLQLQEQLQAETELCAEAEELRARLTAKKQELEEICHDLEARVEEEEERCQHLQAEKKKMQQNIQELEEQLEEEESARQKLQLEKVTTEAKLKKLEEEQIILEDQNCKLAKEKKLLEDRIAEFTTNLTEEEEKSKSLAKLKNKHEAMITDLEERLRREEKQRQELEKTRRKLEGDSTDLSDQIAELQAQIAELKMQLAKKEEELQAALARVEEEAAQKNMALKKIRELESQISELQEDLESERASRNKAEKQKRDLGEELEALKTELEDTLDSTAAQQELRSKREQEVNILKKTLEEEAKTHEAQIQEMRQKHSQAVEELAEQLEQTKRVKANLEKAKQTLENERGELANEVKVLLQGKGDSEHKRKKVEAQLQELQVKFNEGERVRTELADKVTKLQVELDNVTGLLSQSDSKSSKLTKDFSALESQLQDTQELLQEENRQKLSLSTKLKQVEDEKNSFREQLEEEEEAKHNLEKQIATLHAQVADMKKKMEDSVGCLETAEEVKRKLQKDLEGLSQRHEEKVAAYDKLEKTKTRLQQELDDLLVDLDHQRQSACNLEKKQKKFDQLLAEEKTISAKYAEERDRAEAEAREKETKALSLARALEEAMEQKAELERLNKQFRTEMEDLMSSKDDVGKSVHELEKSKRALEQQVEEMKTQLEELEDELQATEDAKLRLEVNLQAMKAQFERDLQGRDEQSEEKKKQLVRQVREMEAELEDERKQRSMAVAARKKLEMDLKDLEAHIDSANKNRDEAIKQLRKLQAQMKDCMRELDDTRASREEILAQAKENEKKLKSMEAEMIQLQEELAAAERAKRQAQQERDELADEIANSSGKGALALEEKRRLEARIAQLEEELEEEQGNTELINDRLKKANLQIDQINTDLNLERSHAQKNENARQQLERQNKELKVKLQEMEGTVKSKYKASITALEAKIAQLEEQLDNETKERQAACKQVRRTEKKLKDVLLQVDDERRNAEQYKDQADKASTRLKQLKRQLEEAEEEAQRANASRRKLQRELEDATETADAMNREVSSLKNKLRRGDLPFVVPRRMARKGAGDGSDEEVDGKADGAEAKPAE

No constants are given. Whether binding was seen depends on the method and setting. In cells and extracts the contact can be indirect. Some binding calls cover weakened binding; strength is not graded here. Where a sequence is shown, tags or fusion partners need not be part of it.

In experiment [1] the target is non-muscle myosin IIA; NMIIA (MYH9) (human) (UniProt P35579). As to the kind of experiment: co-immunoprecipitation from MDA-MB-231 lysate with anti-Myc magnetic beads, Western blot. (In general: Immunoblotting shows a protein as a band on a membrane.)
Experiment [2] shares this target. In words: co-immunoprecipitation with anti-Myc antibody-binding carrier, SDS-PAGE and Western blot.

B1: HSP47:Myc (HSP47 with a Myc tag, expressed from the pCMV6-HSP47-Myc plasmid in MDA-MB-231 cells) (protein, human, UniProt P50454 19-418, looked up, not shown: small tags and cut ends)
chain: AEVKKPAAAAAPGTAEKLSPKAATLAERSAGLAFSLYQAMAKDQAVENILVSPVVVASSLGLVSLGGKATTASQAKAVLSAEQLRDEEVHAGLGELLRSLSNSTARNVTWKLGSRLYGPSSVSFADDFVRSSKQHYNCEHSKINFRDKRSALQSINEWAAQTTDGKLPEVTKDVERTDGALLVNAMFFKPHWDEKFHHKMVDNRGFMVTRSYTVGVMMMHRTGLYNYYDDEKEKLQIVEMPLAHKLSSLIILMPHHVEPLERLEKLLTKEQLKIWMGKMQKKAVAISLPKGVVEVTHDLQKHLAGLGLTEAIDKNKADLSRMSGKKDLYLASVFHATAFELDTDGNPFDQDIYGREELRSPKLFYADHPFIFLVRDTQSGSLLFIGRLVRPKGDKMRDEL
For B1, the binding result in experiment [1] and in experiment [2] was “binds” in each case.
